# Measured values: publication PMC4931318
# By UniProt entry, the sequences of proteins in these tests, tags left out. Residues count along the entry.
# UniProt P28799, residues 18-593: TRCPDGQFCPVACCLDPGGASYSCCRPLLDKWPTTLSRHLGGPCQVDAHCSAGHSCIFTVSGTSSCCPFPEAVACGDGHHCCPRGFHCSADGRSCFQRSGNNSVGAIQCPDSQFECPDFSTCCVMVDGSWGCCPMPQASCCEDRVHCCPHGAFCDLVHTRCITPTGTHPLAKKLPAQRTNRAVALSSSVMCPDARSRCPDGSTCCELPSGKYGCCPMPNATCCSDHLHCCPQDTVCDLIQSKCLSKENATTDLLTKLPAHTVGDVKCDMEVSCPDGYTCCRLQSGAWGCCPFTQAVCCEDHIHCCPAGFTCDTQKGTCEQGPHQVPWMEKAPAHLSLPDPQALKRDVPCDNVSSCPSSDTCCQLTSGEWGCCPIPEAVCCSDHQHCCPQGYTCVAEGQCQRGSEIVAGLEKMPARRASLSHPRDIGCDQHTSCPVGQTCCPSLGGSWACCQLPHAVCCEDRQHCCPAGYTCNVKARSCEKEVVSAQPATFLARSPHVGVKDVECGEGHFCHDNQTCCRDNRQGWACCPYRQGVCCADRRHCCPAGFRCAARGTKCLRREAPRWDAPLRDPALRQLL
# No constants are given. Whether binding was seen depends on the method and setting. In cells and extracts the contact can be indirect. Some entries that bind do so weakly or less than the wild type. Tags and fused reporters may be left off the sequences shown.
# B1: untagged wild-type PSAP (prosaposin) (protein, UniProt P07602-2 17-526)
# chain: GPVLGLKECTRGSAVWCQNVKTASDCGAVKHCLQTVWNKPTVKSLPCDICKDVVTAAGDMLKDNATEEEILVYLEKTCDWLPKPNMSASCKEIVDSYLPVILDIIKGEMSRPGEVCSALNLCESLQKHLAELNHQKQLESNKIPELDMTEVVAPFMANIPLLLYPQDGPRSKPQPKDNGDVCQDCIQMVTDIQTAVRTNSTFVQALVEHVKEECDRLGPGMADICKNYISQYSEIAIQMMMHMDQQPKEICALVGFCDEVKEMPMQTLVPAKVASKNVIPALELVEPIKKHEVPAKSDVYCEVCEFLVKEVTKLIDNNKTEKEILDAFDKMCSKLPKSLSEECQEVVDTYGSSILSILLEEVSPELVCSMLHLCSGTRLPALTVHVTQPKDGGFCEVCKKLVGYLDRNLEKNSTKQEILAALEKGCSFLPDPYQKQCDQFVAEYEPVLIEILVEVMDPSFVCLKIGACPSAHKPLLGTEKCIWGPSYWCQNTETAAQCNAVEHCKRHVWN
# B2: untagged C-terminal deletion (ΔCter) PSAP (domain or fragment, UniProt P07602-2 17-490)
# chain: GPVLGLKECTRGSAVWCQNVKTASDCGAVKHCLQTVWNKPTVKSLPCDICKDVVTAAGDMLKDNATEEEILVYLEKTCDWLPKPNMSASCKEIVDSYLPVILDIIKGEMSRPGEVCSALNLCESLQKHLAELNHQKQLESNKIPELDMTEVVAPFMANIPLLLYPQDGPRSKPQPKDNGDVCQDCIQMVTDIQTAVRTNSTFVQALVEHVKEECDRLGPGMADICKNYISQYSEIAIQMMMHMDQQPKEICALVGFCDEVKEMPMQTLVPAKVASKNVIPALELVEPIKKHEVPAKSDVYCEVCEFLVKEVTKLIDNNKTEKEILDAFDKMCSKLPKSLSEECQEVVDTYGSSILSILLEEVSPELVCSMLHLCSGTRLPALTVHVTQPKDGGFCEVCKKLVGYLDRNLEKNSTKQEILAALEKGCSFLPDPYQKQCDQFVAEYEPVLIEILVEVMDPSFVCLKIGACPSAHKP
# What was measured:
# Experiment in all cases: co-IP; serum-free conditioned medium of co-transfected HeLa cells, concentrated (50 kDa cutoff), IP with anti-V5 antibody or mouse IgG control on Protein G Dynabeads, immunoblot
# [1] = target: T1, V5-tagged wild-type PSAP (prosaposin) (human) (UniProt P07602)
# T1 sequence: B1 chain
# [2] = target: T2, V5-tagged C-terminal deletion (ΔCter) PSAP (human) (UniProt P07602)
# T2 sequence: B2 chain
# [3] = target: V5-tagged PGRN (progranulin) (human) (UniProt P28799)
Molecule,binding [1],binding [2],binding [3]
"untagged PGRN (progranulin), transfected (from UniProt P28799 18-593)",binds,binds,
B1,,,binds
B2,,,binds
